Test results published in the supplement of paper PMC11732987, “Enantioselective OTUD7B fragment discovery through chemoproteomics screening and high-throughput optimisation” (Communications Chemistry, 2025).
This is one part of the list. The data scatter; read single values as rough.

Protein sequences, listed by entry. Tags and fused reporters are not part of them. Lines headed by an entry give the natural chain unless they say otherwise; changes in a name come on top.
UniProt P53396: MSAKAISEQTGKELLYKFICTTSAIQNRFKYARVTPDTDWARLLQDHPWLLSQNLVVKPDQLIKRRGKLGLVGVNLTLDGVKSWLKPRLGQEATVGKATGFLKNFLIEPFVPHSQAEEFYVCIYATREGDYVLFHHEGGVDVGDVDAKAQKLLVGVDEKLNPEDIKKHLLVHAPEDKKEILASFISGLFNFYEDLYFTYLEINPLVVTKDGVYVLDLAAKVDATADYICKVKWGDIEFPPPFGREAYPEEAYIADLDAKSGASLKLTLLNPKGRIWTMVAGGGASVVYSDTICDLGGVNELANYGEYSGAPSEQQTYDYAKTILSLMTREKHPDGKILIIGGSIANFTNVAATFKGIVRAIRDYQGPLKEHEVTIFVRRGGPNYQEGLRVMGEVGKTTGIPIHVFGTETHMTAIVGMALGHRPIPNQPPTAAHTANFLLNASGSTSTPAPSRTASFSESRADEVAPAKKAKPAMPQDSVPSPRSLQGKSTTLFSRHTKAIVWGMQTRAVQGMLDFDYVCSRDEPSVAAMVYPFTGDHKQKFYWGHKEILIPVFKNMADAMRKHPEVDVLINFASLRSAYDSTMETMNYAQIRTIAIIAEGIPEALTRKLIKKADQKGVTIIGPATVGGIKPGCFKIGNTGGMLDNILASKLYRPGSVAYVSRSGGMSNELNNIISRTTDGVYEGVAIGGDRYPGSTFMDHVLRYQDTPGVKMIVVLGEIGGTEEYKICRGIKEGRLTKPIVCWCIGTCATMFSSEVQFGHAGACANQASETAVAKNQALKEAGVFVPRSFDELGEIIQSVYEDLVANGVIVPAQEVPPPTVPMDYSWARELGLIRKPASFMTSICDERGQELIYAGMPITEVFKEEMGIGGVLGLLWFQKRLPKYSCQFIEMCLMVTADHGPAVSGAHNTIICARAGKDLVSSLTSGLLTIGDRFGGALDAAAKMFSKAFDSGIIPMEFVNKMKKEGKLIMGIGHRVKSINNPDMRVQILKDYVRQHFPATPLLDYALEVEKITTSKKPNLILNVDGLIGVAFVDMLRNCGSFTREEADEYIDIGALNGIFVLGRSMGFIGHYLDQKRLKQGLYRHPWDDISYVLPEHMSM
UniProt Q13443: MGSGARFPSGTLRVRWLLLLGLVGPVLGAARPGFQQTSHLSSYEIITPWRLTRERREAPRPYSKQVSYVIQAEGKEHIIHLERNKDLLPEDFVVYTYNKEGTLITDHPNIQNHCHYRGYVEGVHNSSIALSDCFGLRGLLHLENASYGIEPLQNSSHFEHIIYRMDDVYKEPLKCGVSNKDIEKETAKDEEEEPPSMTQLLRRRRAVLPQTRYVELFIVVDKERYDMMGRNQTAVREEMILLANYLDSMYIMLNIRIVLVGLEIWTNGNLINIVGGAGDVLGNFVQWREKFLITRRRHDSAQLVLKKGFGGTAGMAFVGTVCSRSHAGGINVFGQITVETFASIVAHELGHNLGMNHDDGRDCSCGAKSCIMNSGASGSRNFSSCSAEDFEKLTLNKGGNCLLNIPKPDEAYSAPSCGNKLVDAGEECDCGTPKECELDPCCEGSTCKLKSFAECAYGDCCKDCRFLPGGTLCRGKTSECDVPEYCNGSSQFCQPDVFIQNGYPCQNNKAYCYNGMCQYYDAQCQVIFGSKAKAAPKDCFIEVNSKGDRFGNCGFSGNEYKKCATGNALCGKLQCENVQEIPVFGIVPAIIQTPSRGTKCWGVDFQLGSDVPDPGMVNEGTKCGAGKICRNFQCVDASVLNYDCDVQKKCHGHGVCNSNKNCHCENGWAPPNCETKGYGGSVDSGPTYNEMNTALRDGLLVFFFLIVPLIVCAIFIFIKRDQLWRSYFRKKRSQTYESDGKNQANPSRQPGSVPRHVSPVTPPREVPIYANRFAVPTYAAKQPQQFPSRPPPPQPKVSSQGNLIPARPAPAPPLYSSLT
UniProt Q96AP0: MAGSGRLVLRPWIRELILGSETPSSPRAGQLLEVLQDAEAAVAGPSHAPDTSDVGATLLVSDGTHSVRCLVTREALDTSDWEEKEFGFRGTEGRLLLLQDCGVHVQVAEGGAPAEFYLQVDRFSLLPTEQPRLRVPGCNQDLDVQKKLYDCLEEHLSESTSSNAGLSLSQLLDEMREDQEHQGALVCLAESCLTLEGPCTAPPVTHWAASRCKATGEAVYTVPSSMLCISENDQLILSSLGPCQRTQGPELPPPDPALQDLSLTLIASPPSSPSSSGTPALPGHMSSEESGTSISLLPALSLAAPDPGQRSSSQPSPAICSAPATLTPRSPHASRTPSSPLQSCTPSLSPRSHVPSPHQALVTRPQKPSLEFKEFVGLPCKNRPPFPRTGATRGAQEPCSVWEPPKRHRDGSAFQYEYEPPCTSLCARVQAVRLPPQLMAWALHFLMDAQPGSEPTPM
UniProt Q4G176: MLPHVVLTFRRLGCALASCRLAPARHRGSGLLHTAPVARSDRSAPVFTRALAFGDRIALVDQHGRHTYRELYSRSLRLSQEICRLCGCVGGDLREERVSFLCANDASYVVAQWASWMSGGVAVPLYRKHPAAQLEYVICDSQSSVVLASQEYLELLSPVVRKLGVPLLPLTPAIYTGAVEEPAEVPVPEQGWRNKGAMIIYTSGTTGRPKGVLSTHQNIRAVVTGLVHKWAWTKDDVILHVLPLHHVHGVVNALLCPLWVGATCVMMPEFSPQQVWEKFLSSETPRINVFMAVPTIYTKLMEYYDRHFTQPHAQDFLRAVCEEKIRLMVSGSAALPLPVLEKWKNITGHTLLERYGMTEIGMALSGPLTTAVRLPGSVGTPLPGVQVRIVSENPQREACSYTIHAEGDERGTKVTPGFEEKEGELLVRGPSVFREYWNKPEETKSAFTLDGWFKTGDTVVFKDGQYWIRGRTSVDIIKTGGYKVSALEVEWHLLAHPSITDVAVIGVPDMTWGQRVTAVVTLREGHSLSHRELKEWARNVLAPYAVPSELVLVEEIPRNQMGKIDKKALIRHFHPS
UniProt O95573: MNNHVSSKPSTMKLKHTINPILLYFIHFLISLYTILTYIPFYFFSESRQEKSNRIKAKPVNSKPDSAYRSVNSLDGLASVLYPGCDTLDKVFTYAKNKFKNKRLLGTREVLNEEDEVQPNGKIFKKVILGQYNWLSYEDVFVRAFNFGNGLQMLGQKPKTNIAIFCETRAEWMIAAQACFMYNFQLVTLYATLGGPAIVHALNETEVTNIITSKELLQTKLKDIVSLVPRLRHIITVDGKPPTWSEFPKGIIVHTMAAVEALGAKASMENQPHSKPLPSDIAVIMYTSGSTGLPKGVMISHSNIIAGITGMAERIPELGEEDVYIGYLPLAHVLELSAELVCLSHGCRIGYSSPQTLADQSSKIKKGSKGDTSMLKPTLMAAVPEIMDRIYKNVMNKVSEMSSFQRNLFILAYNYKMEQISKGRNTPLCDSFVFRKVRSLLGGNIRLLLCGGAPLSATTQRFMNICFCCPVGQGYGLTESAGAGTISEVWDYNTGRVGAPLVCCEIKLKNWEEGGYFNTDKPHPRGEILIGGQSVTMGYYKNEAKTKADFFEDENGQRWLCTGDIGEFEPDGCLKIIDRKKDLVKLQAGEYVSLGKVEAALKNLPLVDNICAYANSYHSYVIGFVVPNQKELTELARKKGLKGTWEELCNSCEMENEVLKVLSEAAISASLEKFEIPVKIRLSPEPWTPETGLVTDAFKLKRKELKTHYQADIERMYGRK
UniProt Q9UPW5: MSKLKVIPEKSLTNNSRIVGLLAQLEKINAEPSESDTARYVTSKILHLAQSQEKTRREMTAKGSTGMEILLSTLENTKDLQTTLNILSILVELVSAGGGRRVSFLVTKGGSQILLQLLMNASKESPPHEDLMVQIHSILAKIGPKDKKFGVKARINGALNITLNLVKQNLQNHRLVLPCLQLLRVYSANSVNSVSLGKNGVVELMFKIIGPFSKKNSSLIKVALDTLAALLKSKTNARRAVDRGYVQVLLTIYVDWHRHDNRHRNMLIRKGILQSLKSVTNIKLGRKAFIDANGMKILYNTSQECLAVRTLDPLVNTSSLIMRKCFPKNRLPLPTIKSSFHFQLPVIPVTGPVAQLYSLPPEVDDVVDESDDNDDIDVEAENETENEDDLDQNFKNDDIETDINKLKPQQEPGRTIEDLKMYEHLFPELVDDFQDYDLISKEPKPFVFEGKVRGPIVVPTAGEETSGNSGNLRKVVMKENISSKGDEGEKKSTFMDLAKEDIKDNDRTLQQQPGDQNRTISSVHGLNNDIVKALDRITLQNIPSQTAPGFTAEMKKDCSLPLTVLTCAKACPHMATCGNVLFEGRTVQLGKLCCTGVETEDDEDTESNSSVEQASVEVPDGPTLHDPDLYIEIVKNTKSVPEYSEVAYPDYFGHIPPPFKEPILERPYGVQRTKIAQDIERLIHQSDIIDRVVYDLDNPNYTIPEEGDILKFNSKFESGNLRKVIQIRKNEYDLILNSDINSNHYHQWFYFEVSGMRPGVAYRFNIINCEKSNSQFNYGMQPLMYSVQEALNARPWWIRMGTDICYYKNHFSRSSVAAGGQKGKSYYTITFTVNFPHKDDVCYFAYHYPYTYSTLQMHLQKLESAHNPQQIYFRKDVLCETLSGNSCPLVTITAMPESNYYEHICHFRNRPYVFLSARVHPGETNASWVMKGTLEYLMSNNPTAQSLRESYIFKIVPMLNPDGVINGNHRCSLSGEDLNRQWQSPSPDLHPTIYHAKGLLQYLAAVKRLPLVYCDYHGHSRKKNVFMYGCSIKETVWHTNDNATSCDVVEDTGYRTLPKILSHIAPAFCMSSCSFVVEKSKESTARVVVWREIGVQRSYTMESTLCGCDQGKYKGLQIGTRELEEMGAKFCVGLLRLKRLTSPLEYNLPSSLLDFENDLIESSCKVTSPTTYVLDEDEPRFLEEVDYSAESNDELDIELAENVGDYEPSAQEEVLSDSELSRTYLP
UniProt Q13444: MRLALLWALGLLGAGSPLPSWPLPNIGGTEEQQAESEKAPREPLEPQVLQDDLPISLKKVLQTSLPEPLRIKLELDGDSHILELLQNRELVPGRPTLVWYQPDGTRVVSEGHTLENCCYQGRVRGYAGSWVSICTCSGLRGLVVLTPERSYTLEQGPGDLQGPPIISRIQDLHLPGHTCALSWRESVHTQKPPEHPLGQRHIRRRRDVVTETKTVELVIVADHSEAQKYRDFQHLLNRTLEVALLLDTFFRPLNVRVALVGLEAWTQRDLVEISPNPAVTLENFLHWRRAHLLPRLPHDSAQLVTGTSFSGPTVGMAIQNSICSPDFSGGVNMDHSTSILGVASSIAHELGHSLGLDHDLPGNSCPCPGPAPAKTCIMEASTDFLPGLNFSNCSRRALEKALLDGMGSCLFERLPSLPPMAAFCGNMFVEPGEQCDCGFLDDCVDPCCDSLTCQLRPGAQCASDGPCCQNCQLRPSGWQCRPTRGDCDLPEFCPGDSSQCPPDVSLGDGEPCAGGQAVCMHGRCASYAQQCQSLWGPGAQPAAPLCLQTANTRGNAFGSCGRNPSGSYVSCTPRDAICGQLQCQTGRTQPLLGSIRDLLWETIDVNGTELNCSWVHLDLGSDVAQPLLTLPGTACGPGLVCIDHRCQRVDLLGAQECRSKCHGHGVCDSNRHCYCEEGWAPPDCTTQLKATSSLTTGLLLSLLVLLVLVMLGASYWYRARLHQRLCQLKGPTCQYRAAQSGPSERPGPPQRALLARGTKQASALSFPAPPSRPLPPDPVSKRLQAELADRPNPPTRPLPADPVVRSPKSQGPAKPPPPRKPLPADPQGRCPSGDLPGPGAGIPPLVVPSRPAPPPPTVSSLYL
UniProt Q96CM8: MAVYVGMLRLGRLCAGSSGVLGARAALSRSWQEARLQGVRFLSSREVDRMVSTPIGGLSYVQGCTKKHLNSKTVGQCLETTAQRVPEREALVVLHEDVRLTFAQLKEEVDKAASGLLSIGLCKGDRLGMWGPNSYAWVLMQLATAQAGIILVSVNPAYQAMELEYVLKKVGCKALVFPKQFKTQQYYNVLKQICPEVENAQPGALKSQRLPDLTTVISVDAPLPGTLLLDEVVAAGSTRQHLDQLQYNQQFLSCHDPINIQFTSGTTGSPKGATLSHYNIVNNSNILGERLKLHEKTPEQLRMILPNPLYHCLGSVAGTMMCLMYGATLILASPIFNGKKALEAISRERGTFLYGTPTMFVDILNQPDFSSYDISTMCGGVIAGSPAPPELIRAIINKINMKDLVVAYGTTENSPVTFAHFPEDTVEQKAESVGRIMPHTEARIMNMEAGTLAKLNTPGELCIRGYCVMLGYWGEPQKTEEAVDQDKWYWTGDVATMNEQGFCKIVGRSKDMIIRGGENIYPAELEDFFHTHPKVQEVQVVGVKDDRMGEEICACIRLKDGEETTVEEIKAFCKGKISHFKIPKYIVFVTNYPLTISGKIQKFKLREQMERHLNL

compound: ClCC(=O)N[C@H]1CCCc2ccccc12; test: log2 mean competition ratio of IA-DTB cysteine labelling (DMSO/compound) (log2 ratio); higher = stronger cysteine engagement by compound; conditions: 200 µM; treatment time: 4 h; cell line lysate: HEK293T
Protocol: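 IA-DTB competitive cysteine chemoproteomics in HEK293T RIPA lysate. Lysates were treated with compound 29 or 30 at 50 or 200 µM for 4 h, then IA-DTB (500 µM, 1 h), trypsin-digested, NeutrAvidin-enriched and analysed by diaPASEF. Competition ratio = intensity DMSO / intensity compound (n=4 treated, n=64 DMSO); binding: mean log2 CR ≥ 1 and p ≤ 0.05 plus QC filters. Target is the cysteine site.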

Target | log2 mean competition ratio
ANKHD1 C535 | -0.143
AFDN C960 | 0.335
ACLY C845 (UniProt P53396) | 0.0223
ADAR C1036 (UniProt P55265) | 0.194
ADAM9 C370 (UniProt Q13443) | 0.235
ACD C320 (UniProt Q96AP0) | 0.0618
ACSF3 C399 (UniProt Q4G176) | -0.0674
ACOT1 C339 | 0.115
ACSL3 C450 (UniProt O95573) | 0.0927
ACBD5 C83 (UniProt Q5T8D3) | 0.418
AGTPBP1 C769 (UniProt Q9UPW5) | -0.145
ADAM15 C560 (UniProt Q13444) | 0.185
ACBD3 C487 (UniProt Q9H3P7) | -0.174
ACSF2 C462 (UniProt Q96CM8) | -0.189

Taken from above.
log2 mean competition ratio with ADAM9 C370 (UniProt Q13443) reads 0.235
log2 mean competition ratio with ACSL3 C450 (UniProt O95573) reads 0.0927
